PubChem BioAssay AID652243 – Drosophila RNAi Screening Center | 2013

Test: 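Knock-downs that decrease or increase androgen receptor reporter signal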 (primary screen)
Cells: Drosophila S2R+ cells
Reagents: long dsRNA against Drosophila genes
Time to read-out: 72 h (48 h, then 24 h hormone)
Challenge: synthetic androgen R1881 at 10 nM for 24 h
Read-out: 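Per-well raw luminescence of the androgen-driven firefly reporter and of the Renilla control, two replicates each, without normalisation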
Scale: firefly reporter light: higher = more light from androgen-responsive reporter; Renilla control light: higher = more constitutive control signal (cell number, transfection)
Hit rule: 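Across duplicate plates, a knock-down whose log firefly/Renilla ratio shifted a set fold down or up from the GFP/LacZ control mean was a hit; the downward cut appears as both 1.5 and 3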
Meaning of the calls: active = hit: reporter lowered or raised; inactive = no hit
The screen tested about 24,000 reagents; this is a random part of those with a known target gene and a result. In the full data, 246 (1%) got an active call. 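Plates not normalised; calls are printed but the firefly/Renilla ratio behind them is not deposited; fold cut for lowering reported inconsistently.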 Raw values vary from plate to plate and are shown uncorrected. The numbers tell different reagents against one gene apart. Reagent sequences are not shown. The record does not give: the amount of reagent.

| gene | reagent no. | firefly reporter light, replicate 1 | firefly reporter light, replicate 2 | Renilla control light, replicate 1 | Renilla control light, replicate 2 | activity call |
| --- | --- | --- | --- | --- | --- | --- |
| GstT3 (GeneID 33047) | 1 | 2.63e5 | 2.12e5 | 8.99e5 | 5.38e5 | inactive |
| CG11964 (GeneID 41068) | 1 | 42713 | 21126 | 1.89e5 | 2.39e5 | inactive |
| CG11964 (GeneID 41068) | 2 | 3.03e5 | 2.45e5 | 8.63e5 | 7.15e5 | inactive |
| stai (GeneID 33863) | 1 | 2.39e5 | 1.24e5 | 1.82e6 | 1.52e6 | inactive |
| stai (GeneID 33863) | 2 | 7.30e5 | 9.17e5 | 1.46e6 | 1.24e6 | inactive |
| stai (GeneID 33863) | 3 | 4.34e5 | 9.16e5 | 8.13e5 | 1.20e6 | inactive |
| CG3687 (GeneID 36803) | 1 | 41828 | 91304 | 8.23e5 | 8.23e5 | inactive |
| CG3687 (GeneID 36803) | 2 | 3.75e5 | 5.24e5 | 1.27e6 | 1.27e6 | inactive |
| CG3687 (GeneID 36803) | 3 | 7.57e5 | 7.76e5 | 1.16e6 | 1.24e6 | inactive |
| Dhpr (GeneID 39050) | 1 | 1.63e5 | 1.47e5 | 3.14e6 | 2.31e6 | inactive |
| CG15145 (GeneID 35064) | 1 | 1.21e5 | 1.77e5 | 1.50e6 | 1.83e6 | inactive |
| CG15145 (GeneID 35064) | 2 | 2.73e5 | 2.43e5 | 6.94e5 | 8.32e5 | inactive |
| aft (GeneID 37034) | 1 | 9.28e5 | 9.79e5 | 2.16e6 | 1.87e6 | inactive |
| Pif1A (GeneID 8674049) | 1 | 80741 | 96187 | 1.31e6 | 1.25e6 | inactive |
| prtp (GeneID 32124) | 1 | 5.01e5 | 4.82e5 | 3.91e6 | 3.45e6 | inactive |
| prtp (GeneID 32124) | 2 | 5.50e5 | 9.06e5 | 8.36e5 | 1.15e6 | inactive |
| Elp6 (GeneID 41641) | 1 | 50455 | 56240 | 3.71e5 | 4.14e5 | inactive |
| Xxylt (GeneID 37833) | 1 | 9.84e5 | 8.41e5 | 9.60e5 | 1.17e6 | inactive |
| Chd3 (GeneID 40111) | 1 | 1.12e5 | 1.66e5 | 2.31e6 | 2.12e6 | inactive |
| Chd3 (GeneID 40111) | 2 | 7.08e5 | 2.92e5 | 7.70e5 | 3.89e5 | inactive |
| mrn (GeneID 39688) | 1 | 31293 | 36534 | 4.76e5 | 3.56e5 | inactive |
| CG2993 (GeneID 40924) | 1 | 1.39e5 | 99366 | 2.39e6 | 2.07e6 | inactive |
| CG2993 (GeneID 40924) | 2 | 24645 | 16200 | 2.92e5 | 3.68e5 | inactive |
| CG2993 (GeneID 40924) | 3 | 5.56e5 | 5.76e5 | 1.22e6 | 1.39e6 | inactive |
| CG9782 (GeneID 32632) | 1 | 5.77e5 | 4.25e5 | 3.86e5 | 2.85e5 | inactive |
| CG9782 (GeneID 32632) | 2 | 3.91e5 | 3.79e5 | 2.88e6 | 3.11e6 | inactive |
| CG9782 (GeneID 32632) | 3 | 6.33e5 | 6.59e5 | 8.75e5 | 8.19e5 | inactive |
| CG7156 (GeneID 42187) | 1 | 90501 | 80964 | 7.15e5 | 5.67e5 | inactive |
| CG7156 (GeneID 42187) | 2 | 2.62e5 | 3.06e5 | 4.55e5 | 6.28e5 | inactive |
| CG7156 (GeneID 42187) | 3 | – | – | – | – | inactive |
| CG11899 (GeneID 46391) | 1 | 1.85e5 | 1.50e5 | 1.66e6 | 2.84e6 | inactive |
| pkm (GeneID 32108) | 1 | 97630 | 1.31e5 | 9.26e5 | 9.63e5 | inactive |
| pkm (GeneID 32108) | 2 | 6.78e5 | 4.37e5 | 1.14e6 | 6.39e5 | inactive |
| CG31752 (GeneID 35143) | 1 | 9.94e5 | 7.75e5 | 1.84e6 | 1.43e6 | inactive |
| CG5890 (GeneID 43126) | 1 | 7.16e5 | 7.72e5 | 2.92e6 | 2.70e6 | inactive |
| CG8475 (GeneID 34114) | 1 | 7.73e5 | 8.25e5 | 1.96e6 | 1.63e6 | inactive |
| CG4186 (GeneID 50107) | 1 | 2.78e5 | 2.39e5 | 2.17e6 | 2.11e6 | inactive |
| CG31463 (GeneID 40978) | 1 | 28473 | 19730 | 4.36e5 | 3.72e5 | inactive |
| CG31463 (GeneID 40978) | 2 | 2.80e5 | 3.16e5 | 5.15e5 | 5.58e5 | inactive |
| Scsalpha1 (GeneID 38447) | 1 | 1.03e6 | 7.02e5 | 1.62e6 | 1.50e6 | inactive |
| Scsalpha1 (GeneID 38447) | 2 | 3.42e5 | 3.99e5 | 4.16e5 | 6.20e5 | inactive |
